Reference: patent publication US20170081419A1 (AbbVie / Abbott, published 2017)
No constants are given. Whether binding was seen depends on the method and setting. Some entries that bind do so weakly or less than the wild type.

By UniProt entry, the sequences of proteins in these tests, tags left out. Residues count along the entry.
UniProt Q8HYX8, residues 33-285: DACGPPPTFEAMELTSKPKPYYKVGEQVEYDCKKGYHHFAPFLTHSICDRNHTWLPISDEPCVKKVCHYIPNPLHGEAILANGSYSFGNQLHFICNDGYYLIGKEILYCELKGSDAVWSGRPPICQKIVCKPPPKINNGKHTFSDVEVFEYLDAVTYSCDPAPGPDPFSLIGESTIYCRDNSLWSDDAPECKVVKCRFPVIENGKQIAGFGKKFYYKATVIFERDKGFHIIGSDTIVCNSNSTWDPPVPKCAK

Target: marmoset CD46 homolog (marmoset (Callithrix jacchus)) (UniProt Q8HYX8)
Assay: ForteBIO, concentration series of recombinant monomeric CD46 homolog

Binder	binding
N35.6 (antibody, IgG2a, V domains shown) VH: EVQLVESGGGLVKPGGSLKLSCAASGFTFSDYYMYWVRQTPEKRLEWVATISDGGTYIYYPDSVKGRFTISRDNAKNNLYLQMSSLKSEDTAMYYCVRDIDYDTSYPWFAYWGQGTLVTVSA VL: RCDIQMTQTTSSLSASLGDRVTISCSASQGISNYLNWYQQKPDGTVKLLIYYTSSLHSGVPSRFSGSGSGTDYSLTINNLEPEDIATYYCQQYSKLPWTFGGGTKLEIKR	binds
N50.3 (antibody, IgG2b, V domains shown, .3 is the subclone suffix; also called SC1.N50) VH: EVLLHQSGPELVKPGASVKIPCKASGYTFTDYNMDWVKQSHGKSLEWIGDINPNNGGTFYNQKFKGKATLTVHKSSSTAFMELRSLTSEDTAVYYCTRSKYDNYPWFAYWGQGTLVTVSA VL: DIQMTQITSSLSASLGDRVTISCSASQGISNYLNWYQQKPDGTVKLLIYYTSSLHSGVPSRFRGSGSGTNYSLTISNLEPEDIATYYCQQYIKLPWTFGGGTKLEIKR	binds
N53.5 (antibody, IgG1, V domains shown) VH: QVQLQQSGPELVKPGASVKLSCKASGYTFTNYDINWVKQRPGQGLEWIGWIYPRDGSFKYNEKFKGKATLTVDTSSSTAYMDLHSLTSEDSAVFFCAVSEDGYPWFPYWGQGTLVTVSA VL: GIQMTQTTSSLSASLGDRVTISCSASQGISNYLNWYQQKPDGTVKLLIYYTSSLHSGVPSRFSGSGSGTDYSLTISNLEPEDIATYYCQQYIKLPFTFGSGTKLEIKR	binds
N54.4 (antibody, IgG2a, V domains shown) VH: QVQLQQPGAELVKPGASVKLSCQTSGYTFTSYWMHWVKQRPGQGLEWIGEINPSNGRTNYNEKFKTKATLTVDKSSTTAYIQLNSLTSEDSAVYYCARLRDYGGWGQGTLVTVSA VL: NIVMTQSPKSVSMSVGERVTLSCKASENVNTFVSWFQQKPDQSPKLLIYGASNRYPGVPDRFTGSGSATEFTLTISSVQAEDLADYHCGQSYSYPYTFGGGTKLEIKR	binds
